Results from paper PMC12040169 (PLOS Biology, 2025).
This is one part of the list.

These compounds were tested on T1, CTL2-GFP (C. trachomatis L2/434/Bu, GFP-expressing). Details: bulk GFP, single well; 28.5 h, 10 µM; inhibitor.
T1 construct: L2/434/Bu, GFP-expressing
Parameters: species or system HeLa; Intracellular C. trachomatis growth in HeLa cells, bulk GFP fluorescence relative to DMSO

Compared with `CCCCNC(=O)N1CCN(c2ccccc2Cl)CC1` [CBK043777], `Cc1ccc(CC2CCCN(C(=O)NCc3cnn(C)c3)C2)cc1` (stereo not shown) [CBK303990] is higher in “% of control remaining” value: 94.3147% for the first, 109.577% for the second.

Going from `CN(C)S(=O)(=O)c1ccc(C(=O)C2=C(O)C(=O)N(CCN3CCOCC3)C2c2ccccc2)cc1` (stereo not shown) [CBK264540] to `Cc1ccccc1OCC(O)CN1CCN(CCN2C(=O)c3cccc4cccc(c34)C2=O)CC1` (stereo not shown) [CBK278321C], the “% of control remaining” value rises from 89.9804% to 172.333%.

Compared with `CCCCc1nnc(CC(C)C)o1` [CBK008679], `CCN(CC)CCN(C(=O)c1cnn(C)c1C)C1CCS(=O)(=O)C1` (stereo not shown) [CBK305321] is higher in “% of control remaining” value: 107.068% for the first, 120.442% for the second.

First: COc1ccc(C(=O)Nc2cc(C)c3c(=O)oc4ccccc4c3n2)cc1OC [CBK287442]
Second: COc1ccccc1CNC(=O)c1cccc(C)c1[N+](=O)[O-] [CBK265703]
The “% of control remaining” value of the first is higher: 147.576% for the first, 54.3347% for the second.

Going from `CSCCN(CC(=O)O)Cc1ccccc1` [CBK005712] to `CS(=O)(=O)N(CCc1ccccc1)CC(=O)O` [CBK281244], the “% of control remaining” value rises from 128.959% to 130.872%.

Going from `COc1cc(C(=O)N2CCC(n3c(=O)[nH]c4c(C)cccc43)CC2)ccc1C` [CBK155372] to `COc1ccc(N2CCN(CC(O)COc3ccc4c(C)cc(=O)oc4c3)CC2)cc1` (stereo not shown) [CBK269847], the “% of control remaining” value rises from 98.0222% to 171.869%.

First: C(=C\c1cccc(N2CCN(CCN3CCCC3)CC2)n1)/c1ccccc1 [CBK036853]
Second: CCN(CC)CCN1CCN(c2cncc(-c3cccc(/C=C/C(=O)O)c3)n2)CC1 [CBK066097]
The “% of control remaining” value of the first is higher: 196.634% for the first, 151.727% for the second.

Going from `COc1ccc(-c2nc(NC(=O)C3CC(=O)N(C)C3c3cccnc3)cnc2-c2cccc(C)c2)cc1` (stereo not shown) [CBK036692] to `CC(C)(c1ccccc1)c1ccc(OCC(=O)Nc2cccc(C(=O)O)c2)cc1` [CBK266014], the “% of control remaining” value falls from 163.12% to 95.3725%.

Compared with `CC1CC(C(F)F)n2nc(C(=O)O)nc2N1` (stereo not shown) [CBK267636], `COc1cc2c(cc1OC)C(C(=O)O)CC(=O)N2` (stereo not shown) [CBK218955] is lower in “% of control remaining” value: 155.884% for the first, 114.902% for the second.

Compared with `COc1ccc(C2(C(=O)NCc3c(F)cccc3F)CC2)cc1` [CBK149826], `COCCC(=O)NCC1Cc2cc(F)cc(-c3ccc(C(C)=O)s3)c2O1` (stereo not shown) [CBK306742] is higher in “% of control remaining” value: 67.3698% for the first, 121.16% for the second.

Going from `O=[N+]([O-])c1ccccc1S(=O)(=O)NCc1ccccn1` [CBK261751] to `c1ccc(C[n+]2cn3cc(-c4ccccc4)nc3[n-]2)cc1` [CBK261654], the “% of control remaining” value falls from 111.967% to 100%.
